B1: anti-VEGF/anti-DLL4 bispecific antibody 219R45-MB-21M18 (bispecific antibody, human IgG2)
heavy 1: QVQLVQSGAEVKKPGASVKVSCKASGYTFTNYWMHWVRQAPGQGLEWMGDINPSNGRTSYKEKFKRRVTLSVDKSSSTAYMELSSLRSEDTAVYFCTIHYDDKYYPLMDYWGQGTLVTVSSASTKGPSVFPLAPCSRSTSESTAALGCLVKDYFPEPVTVSWNSGALTSGVHTFPAVLQSSGLYSLSSVVTVPSSNFGTQTYTCNVDHKPSNTKVDKTVERKCCVECPPCPAPPVAGPSVFLFPPKPKDTLMISRTPEVTCVVVDVSHEDPEVQFNWYVDGVEVHNAKTKPREEQFNSTFRVVSVLTVVHQDWLNGKEYKCKVSNKGLPAPIEKTISKTKGQPREPQVYTLPPSREKMTKNQVSLTCLVKGFYPSDIAVEWESNGQPENNYKTTPPMLKSDGSFFLYSKLTVDKSRWQQGNVFSCSVMHEALHNHYTQKSLSLSPGK
heavy 2: QVQLVQSGAEVKKPGASVKISCKASGYSFTAYYIHWVKQAPGQGLEWIGYISSYNGATNYNQKFKGRVTFTTDTSTSTAYMELRSLRSDDTAVYYCARDYDYDVGMDYWGQGTLVTVSSASTKGPSVFPLAPCSRSTSESTAALGCLVKDYFPEPVTVSWNSGALTSGVHTFPAVLQSSGLYSLSSVVTVPSSNFGTQTYTCNVDHKPSNTKVDKTVERKCCVECPPCPAPPVAGPSVFLFPPKPKDTLMISRTPEVTCVVVDVSHEDPEVQFNWYVDGVEVHNAKTKPREEQFNSTFRVVSVLTVVHQDWLNGKEYKCKVSNKGLPAPIEKTISKTKGQPREPQVYTLPPSREEMTKNQVSLTCLVEGFYPSDIAVEWESNGQPENNYKTTPPMLDSDGSFFLYSELTVDKSRWQQGNVFSCSVMHEALHNHYTQKSLSLSPGK
light: DIVMTQSPDSLAVSLGERATISCRASESVDNYGISFMKWFQQKPGQPPKLLIYAASNQGSGVPDRFSGSGSGTDFTLTISSLQAEDVAVYYCQQSKEVPWTFGGGTKVEIKRTVAAPSVIFPPSDEQLKSGTASVVCLLNNFYPREAKVQWKVDNALQSGNSQESVTEQDSKDSTYSLSSTLTLSKADYEKHKVYACEVTHQGLSSPVTKSFNRGEC
B2: anti-VEGF/anti-DLL4 bispecific antibody 219R45-MB-21R79 (bispecific antibody, human IgG2)
heavy 1: B1 heavy 1
heavy 2: B1 heavy 2 with S52A, S53N, G56R
light: B1 light
B3: anti-VEGF/anti-DLL4 bispecific antibody 219R45-MB-21R83 (bispecific antibody, human IgG2)
heavy 1: B1 heavy 1
heavy 2: B1 heavy 2 with S53N, G56R
light: B1 light
B4: anti-VEGF/anti-DLL4 bispecific antibody 219R45-MB-21R75 (bispecific antibody, human IgG2)
heavy 1: B1 heavy 1
heavy 2: B1 heavy 2 with S52A, S53G, N55K, G56D
light: B1 light
notes: Monovalent/bispecific IgG2 heterodimer

Sequences of proteins named here, by UniProt entry; tags and fusion partners are left off. A change or cut given only in a name is not applied to a line headed by its entry. A line that says so, or that is headed by a name, gives the form on record, which may keep a tag or linker. Residues count along the entry.
UniProt Q9NR61, residues 27-522: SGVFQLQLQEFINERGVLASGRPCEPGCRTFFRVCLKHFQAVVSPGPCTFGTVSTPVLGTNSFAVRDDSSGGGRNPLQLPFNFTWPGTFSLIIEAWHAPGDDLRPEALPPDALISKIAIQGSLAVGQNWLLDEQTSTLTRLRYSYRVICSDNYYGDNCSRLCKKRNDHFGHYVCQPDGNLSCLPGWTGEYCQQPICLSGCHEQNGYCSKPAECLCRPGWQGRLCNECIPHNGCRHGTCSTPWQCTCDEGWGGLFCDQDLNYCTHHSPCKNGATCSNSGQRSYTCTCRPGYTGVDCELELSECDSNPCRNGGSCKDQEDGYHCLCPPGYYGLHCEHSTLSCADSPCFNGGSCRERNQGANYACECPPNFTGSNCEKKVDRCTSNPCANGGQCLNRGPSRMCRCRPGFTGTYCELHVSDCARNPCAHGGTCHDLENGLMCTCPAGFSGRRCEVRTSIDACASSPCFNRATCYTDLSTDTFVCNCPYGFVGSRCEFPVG
VEGF (ATGEN, South Korea) coated on ELISA plates (P15692, form named): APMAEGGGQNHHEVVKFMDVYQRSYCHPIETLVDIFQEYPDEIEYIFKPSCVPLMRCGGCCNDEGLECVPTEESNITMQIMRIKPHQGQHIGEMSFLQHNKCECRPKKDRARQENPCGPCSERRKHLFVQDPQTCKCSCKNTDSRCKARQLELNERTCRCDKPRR

Residue numbers refer to the chain shown, from its start. These are yes or no findings as the source states them, for the method shown. Some results given as binding are weak or reduced against the parent protein; the word gives no strength.

The target in one experiment is T1, biotin-DLL4-hFc (UniProt Q9NR61 27-522, limits assumed, biotinylated).
T1 construct: not shown: human Fc ('hFc')
In words: bridging ELISA; VEGF-coated plate, biotin-DLL4-hFc, streptavidin-HRP; summary of Example 5.
Take B1: the binding result is reported as “binds”.
In the case of B2, the binding result is reported as “binds”.
Same read-out and setting: next, B3: “binds”; B4: “binds”.

For a further experiment, the target named is VEGF (ATGEN, South Korea) coated on ELISA plates (UniProt P15692). Described as above.
As for B1, the binding entry is reported as “binds”.
On to B2, for which the binding result is on record as “binds”.
The same measure, in the same setting: to B3 belongs “binds”; to B4, “binds”.

The target in another experiment is T1, biotin-DLL4-hFc. Nature of the experiment: bridging ELISA: antibody pre-incubated with 2 ug/ml biotin-DLL4-hFc, captured on a VEGF-coated plate, detected with streptavidin-HRP, absorbance 450-650 nm. A general note: ELISA stands for enzyme-linked immunosorbent assay.
As to B1, the binding entry was “binds”.
As for B2, the binding result is recorded as “binds”.
Same read-out and setting: next, B3: “binds”; B4: “binds”.

Another experiment deals with VEGF (ATGEN, South Korea) coated on ELISA plates (UniProt P15692). The description is as above.
For B1, the binding result is “binds”.
The same measure, in the same setting: next, B2: “binds”; B3: “binds”; B4: “binds”.

(Values after patent US20150368329A1 (ONCOMED PHARMACEUTICALS, published 2015).)
